The text below walks through data of article PMC4857404.

The chains behind the UniProt entries cited, without tags or fusion partners. Where a name states a change or a piece, a line headed by the entry shows the natural chain unless it says otherwise. A line that says so, or that is headed by a name, gives the form on record, which may keep a tag or linker. Residues count along the entry.
UniProt Q9NTX7, residues 92-168: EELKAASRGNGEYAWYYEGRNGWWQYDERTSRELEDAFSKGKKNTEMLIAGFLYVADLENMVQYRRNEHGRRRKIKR
GST-WWE^R164A mutant control (Q9NTX7, form named): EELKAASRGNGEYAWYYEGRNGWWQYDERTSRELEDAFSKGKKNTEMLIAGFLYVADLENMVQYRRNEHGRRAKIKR
UniProt O15169: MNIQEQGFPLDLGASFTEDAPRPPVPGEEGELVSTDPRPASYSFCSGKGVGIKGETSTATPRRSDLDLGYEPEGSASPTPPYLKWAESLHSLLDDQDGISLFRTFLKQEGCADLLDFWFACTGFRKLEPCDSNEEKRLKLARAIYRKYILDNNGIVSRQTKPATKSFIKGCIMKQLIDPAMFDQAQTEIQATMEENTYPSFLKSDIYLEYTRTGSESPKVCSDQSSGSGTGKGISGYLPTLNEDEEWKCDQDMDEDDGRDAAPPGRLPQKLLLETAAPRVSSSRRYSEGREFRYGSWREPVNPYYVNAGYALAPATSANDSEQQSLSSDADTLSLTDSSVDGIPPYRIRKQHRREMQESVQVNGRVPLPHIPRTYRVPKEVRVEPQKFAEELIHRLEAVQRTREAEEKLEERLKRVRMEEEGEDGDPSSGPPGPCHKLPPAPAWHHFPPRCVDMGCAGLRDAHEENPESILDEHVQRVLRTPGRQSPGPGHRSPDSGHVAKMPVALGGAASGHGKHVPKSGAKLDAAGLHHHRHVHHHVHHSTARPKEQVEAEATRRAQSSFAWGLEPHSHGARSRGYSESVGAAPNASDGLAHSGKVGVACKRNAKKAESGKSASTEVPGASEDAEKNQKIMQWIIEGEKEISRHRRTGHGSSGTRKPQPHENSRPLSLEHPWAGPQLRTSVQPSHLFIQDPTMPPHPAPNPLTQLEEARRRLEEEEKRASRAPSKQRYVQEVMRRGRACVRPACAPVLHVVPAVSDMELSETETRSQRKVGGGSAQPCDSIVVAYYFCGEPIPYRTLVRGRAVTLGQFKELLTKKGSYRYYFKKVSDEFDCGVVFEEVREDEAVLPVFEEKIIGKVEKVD

Common to all, as to assay: pull-down; GST-WWE or GST-WWE^R164A beads incubated overnight at 4 °C with lysates of HEK293T cells (transfected with Flag-Axin1 or Flag-Axin1ΔTBD; or untransfected, Wnt3A 0.5 h), S2R+ cells (Wg conditioned medium 1 h; white dsRNA control) or Drosophila embryos (stages 4-5 and 9); lysis or RIPA buffer with 1 μM ADP-HPD, protease and phosphatase inhibitors; four washes (50 mM Tris-HCl pH 8.0, 150 mM NaCl, 1% NP-40); immunoblot; only the target purified

In experiment [1] the target is GST-WWE (Trp-Trp-Glu (WWE) domain of the RING-type E3 ubiquitin ligase RNF146/Iduna coupled to glutathione S-transferase) (UniProt Q9NTX7).
In experiment [2] the target is GST-WWE^R164A mutant control (UniProt Q9NTX7).
The target in experiment [3] is GST-WWE (Trp-Trp-Glu (WWE) domain of the RING-type E3 ubiquitin ligase RNF146/Iduna coupled to glutathione S-transferase) (UniProt Q9NTX7). The source holds these as a separate data set.

Like-named read-outs stand apart in the source and are kept apart here. No constants are given. Whether binding was seen depends on the method and setting. Binding seen in cells or lysates may run through a third protein. Some entries that bind do so weakly or less than the wild type. For some of these results: Tags and fused reporters may be left off the sequences shown.

With “endogenous ADP-ribosylated Axin1 of HEK293T cells (from UniProt O15169 1-862)”, in experiment [1], the binding entry was “binds”.

B1: endogenous Drosophila Axin (ADP-ribosylated pool) of S2R+ cells (protein, UniProt Q9V407 1-745)
chain: MSGHPSGIRKHDDNECSGPRPPVPGEESRVKKMTEGVADTSKNSSPSYLNWARTLNHLLEDRDGVELFKKYVEEEAPAYNDHLNFYFACEGLKQQTDPEKIKQIIGAIYRFLRKSQLSISDDLRAQIKAIKTNPEIPLSPHIFDPMQRHVEVTIRDNIYPTFLCSEMYILYIQQMSAQQERCTSSGATGSGSAGSSGSGGSSLAGACALPPTTASGKQQLPQLVPPGAFINLPVSSVSGPPAGTCSASGSVYGPSTSASSSGSISATDTLPRSSTLPTLHEDSVLSLCDDFEKVQMQEGGGSLGSGSVGAGARAPDYPIRLTRDLLIATQKRRLEIRPPGAHGYVYNPSTTNTSYVPNSRVDSERASVSSGGRTDSDTMSISSCSMDGRPYIQRRHSSTESKAIRQSAMANKETNTFQVIPRTQRLHSNEHRPLKEEELVSLLIPKLEEVKRKRDLEERARERNPGAALLTNERSSASDRAFAEAIREKFALDEDNDQDILDQHVSRVWKDQTPHRSPGTMSPCPPIPSRRRTATHDSGMVSDGAMSLSGHSMKHSKSMPDHSSCSRKLTNKWPSMNTDSGISMFSADTVTKYKDASSRSGSSTASKLEEAKRRLEDEPRRSRRYAQPPMQHLSQQPLASFSSSSSGGSISLPHQPPPLPAKPPETIVVFSFCEEPVPYRIKIPGTQPTLRQFKDYLPRRGHFRFFFKTHCEDPDSPVIQEEIVNDSDILPLFGDKAMGLVKPSD
modifications: ADP-ribosylated (sites not given)
Consider B1, for which the binding result in experiment [2] was “no binding”; in experiment [3] it was “binds”.

B2: Axin-V5 (Drosophila Axin tagged with a triple V5 epitope), transgene expressed in embryos (protein, UniProt Q9V407 1-745)
chain: MSGHPSGIRKHDDNECSGPRPPVPGEESRVKKMTEGVADTSKNSSPSYLNWARTLNHLLEDRDGVELFKKYVEEEAPAYNDHLNFYFACEGLKQQTDPEKIKQIIGAIYRFLRKSQLSISDDLRAQIKAIKTNPEIPLSPHIFDPMQRHVEVTIRDNIYPTFLCSEMYILYIQQMSAQQERCTSSGATGSGSAGSSGSGGSSLAGACALPPTTASGKQQLPQLVPPGAFINLPVSSVSGPPAGTCSASGSVYGPSTSASSSGSISATDTLPRSSTLPTLHEDSVLSLCDDFEKVQMQEGGGSLGSGSVGAGARAPDYPIRLTRDLLIATQKRRLEIRPPGAHGYVYNPSTTNTSYVPNSRVDSERASVSSGGRTDSDTMSISSCSMDGRPYIQRRHSSTESKAIRQSAMANKETNTFQVIPRTQRLHSNEHRPLKEEELVSLLIPKLEEVKRKRDLEERARERNPGAALLTNERSSASDRAFAEAIREKFALDEDNDQDILDQHVSRVWKDQTPHRSPGTMSPCPPIPSRRRTATHDSGMVSDGAMSLSGHSMKHSKSMPDHSSCSRKLTNKWPSMNTDSGISMFSADTVTKYKDASSRSGSSTASKLEEAKRRLEDEPRRSRRYAQPPMQHLSQQPLASFSSSSSGGSISLPHQPPPLPAKPPETIVVFSFCEEPVPYRIKIPGTQPTLRQFKDYLPRRGHFRFFFKTHCEDPDSPVIQEEIVNDSDILPLFGDKAMGLVKPSD
modifications: a pool is ADP-ribosylated (the pool pulled down by GST-WWE); sites not given
Take B2: the binding result in experiment [3] is recorded as “binds”.
